We go through 15 compounds from PubChem BioAssay AID1487 (National Center for Advancing Translational Sciences (NCATS), 2009).

The other results are listed elsewhere or left out. The main result of the screen is listed elsewhere. These columns were measured beside it and carry no call. Compounds called inactive in the main read-out are mostly missing here. The note in brackets gives the kind of curve behind each potency; many fits are weak.

This assay is described as follows: qHTS Assay for Modulators of Lamin A Splicing. Particulars: HeLa LMNA splicing GFP/RFP minigene ratio, 48 h. The gist of the method:
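S3 HeLa stable clones carrying a lamin A-EGFP splicing minigene plus DsRed2 were seeded at 600 cells/well in Opti-MEM with 2% FBS, pin-dosed and incubated 48 h at 37°C. Acumen cytometry (488 nm) gave the GFP/RFP total-intensity ratio.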

The mark [1] stands for this setting: measured here: GFP splicing reporter channel.
[2] abbreviates: measured here: RFP viability control channel.

As usually defined, the AC50 is the concentration giving half of the maximal activity seen.

`COC(=O)/C(=C\Nc1ccc(Cl)cc1Cl)NC(=O)c1ccccc1`: the concentration at half-maximal activity (AC50) by setting is: under setting [1], 14.1 µM [rising, single point]; under setting [2], 25.1 µM [rising, single point].
For `COc1ccc(NC(=O)c2ccc3c(c2)NC(=O)CS3)cc1S(=O)(=O)Nc1ccc(Br)cc1`, under setting [2], the half-maximal activity concentration (AC50) is 15.8 µM [falling, partial curve].
Consider `COc1ccc(/C=C(\C#N)C(=O)OC2CCOC2=O)cc1` (configuration not stated), for which the AC50 under setting [1] was 35.5 µM [rising, partial curve].
For the compound `COCCn1c(C)cc(C(=O)CSc2nc3ccccc3c(=O)[nH]2)c1C`, the AC50 under setting [2] is 7.08 µM [rising, partial curve, poor fit].
Turning to `COc1cc(Cl)c(S(=O)(=O)N2CCN(Cc3ccc4c(c3)OCO4)CC2)cc1Cl`, the AC50 under setting [1] is 20 µM [rising, single point] and the half-maximal activity concentration (AC50) under setting [2] is 35.5 µM [rising, single point].
On to `C=CC(C1=CC(=O)C(OC)=C(OC)C1=O)c1ccccc1` (configuration not stated), for which the concentration at half-maximal activity (AC50) by setting is: under setting [1], 10 µM [falling, partial curve]; under setting [2], 10 µM [falling, partial curve].
Regarding `Cc1ccc(C)c(Cn2c(=O)c3c(nc4n3CCN4c3ccccc3)n(C)c2=O)c1`, the AC50 by setting is: under setting [1], 35.5 µM [falling, partial curve]; under setting [2], 35.5 µM [falling, partial curve, poor fit].
Take `CC1CCCC(NC(=O)C2c3ccccc3C(=O)N2Cc2cccs2)C1C` (configuration not stated): under setting [2], the half-maximal activity concentration (AC50) is 12.6 µM [rising, single point].
As for `CC(=O)Nc1n[nH]c(-c2ccc(C)cc2)c1C`, the AC50 reads like this: under setting [1], 10 µM [rising, partial curve]; under setting [2], 12.6 µM [rising, partial curve].
As for `CC(=O)c1cn(CC(=O)Nc2ccc(C)c(C)c2)c2ccccc12`, the AC50 under setting [2] was 0.0282 µM [falling, full curve, poor fit].
Regarding `O=C(CO/N=C/c1ccc(OC(F)F)cc1)NC1CCCCCC1`, the concentration at half-maximal activity (AC50) under setting [1] was 1.58 µM [falling, full curve, poor fit].
For `O=C(CCSc1ccc(F)cc1)Nc1ccc(-n2cnnn2)cc1`, the half-maximal activity concentration (AC50) under setting [2] was 35.5 µM [rising, single point].
Take `COc1cc2c3nnc(-c4ccc(F)cc4)c-3cn(Cc3ccc(F)cc3)c2cc1OC`: the AC50 under setting [1] was 35.5 µM [falling, single point] and the concentration at half-maximal activity (AC50) under setting [2] was 35.5 µM [falling, single point].
`COc1ccccc1N1CCN(S(=O)(=O)/C=C/c2ccccc2)CC1`: the half-maximal activity concentration (AC50) under setting [2] is 20 µM [rising, single point].
For `O=C(Cn1ccn(-c2ccc(F)cc2)c(=O)c1=O)Nc1ccc(F)cc1`, the concentration at half-maximal activity (AC50) was 11.2 µM [falling, partial curve, poor fit] under setting [1] and 0.00447 µM [falling, full curve, poor fit] under setting [2].
